PubChem BioAssay AID1224826 | NIAID, 2016
The deposit covers about 17,000 reagents; this is a random part of them. About 1,110 of all reagents (6.6%) count as active. 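Active means lowered or raised reporter signal; replicate intensities are raw and not normalised per plate.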 Entries without a mark were called inactive. Not all columns of the deposit are shown.

Screen: 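Regulators of Tlr4 signalling leading to Tnf-alpha expression in macrophages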 (primary screen)
System: RAW264.7 G9 macrophages from mouse bearing reporters for p65 (GFP) and the Tnf promoter (mCherry)
Reagents: siRNA pool against mouse genes, 100 nM
Time to read-out: 16 h of LPS stimulation, after 2 days of siRNA transfection
Conditions: bacterial lipopolysaccharide (Salmonella minnesota R595), 10 ng/ml
Detection: 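Imaged Tnf reporter mCherry in nuclei, minus background, normalised per plate to the median and expressed as robust z-scores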
Reading the numbers: Tnf reporter robust z-score: higher = stronger Tnf promoter reporter signal after LPS
Hit rule: 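a well counts as active at a score of -1.3 or below (Tlr4 knock-down control median) or above 3 (raised signal); controls and wells holding fewer than 50 cells are excluded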
Calls: active = Tnf reporter clearly lowered or raised; inactive = no clear change in Tnf reporter

With S100g, what was measured?
Tnf reporter robust z-score: -0.36; fewer than 50 cells in well: enough cells in well

Which result is listed for Ubqln1?
Tnf reporter robust z-score: 0.55; fewer than 50 cells in well: enough cells in well

What is on record for Tmem223?
Tnf reporter robust z-score: -1.06; fewer than 50 cells in well: enough cells in well

For Bcl7c, what was measured?
Tnf reporter robust z-score: 1.28; fewer than 50 cells in well: enough cells in well

What is on record for Scly?
fewer than 50 cells in well: fewer than 50 cells per well; well left out of calls

How did the screen score Ccnk?
Tnf reporter robust z-score: 0.45; fewer than 50 cells in well: enough cells in well

With Oas1g, what does the deposit list?
Tnf reporter robust z-score: 0.34; fewer than 50 cells in well: enough cells in well

For Hinfp, what was measured?
Tnf reporter robust z-score: 0.19; fewer than 50 cells in well: enough cells in well

For Nrros, what does the deposit list?
Tnf reporter robust z-score: -0.73; fewer than 50 cells in well: enough cells in well

With Mdga1, what was measured?
Tnf reporter robust z-score: 1.43; fewer than 50 cells in well: enough cells in well

With Prr36, how do the results read?
Tnf reporter robust z-score: 1.31; fewer than 50 cells in well: enough cells in well

How did the screen score Fbxo11?
Tnf reporter robust z-score: -0.7; fewer than 50 cells in well: enough cells in well

With Ppp1r7, what was measured?
Tnf reporter robust z-score: 0.14; fewer than 50 cells in well: enough cells in well

What did the screen give for Crabp1?
Tnf reporter robust z-score: 0.24; fewer than 50 cells in well: enough cells in well

What did the screen give for Rgs9?
Tnf reporter robust z-score: -0.6; fewer than 50 cells in well: enough cells in well

For Baiap2l1, what does the deposit list?
Tnf reporter robust z-score: -1.01; fewer than 50 cells in well: enough cells in well

What is on record for Ercc5?
Tnf reporter robust z-score: 0.83; fewer than 50 cells in well: enough cells in well

Which result is listed for Slc35b3?
fewer than 50 cells in well: fewer than 50 cells per well; well left out of calls

What is on record for Gm4861?
Tnf reporter robust z-score: 0; fewer than 50 cells in well: enough cells in well

With Lrrc39, what does the deposit list?
Tnf reporter robust z-score: -0.57; fewer than 50 cells in well: enough cells in well

What did the screen give for Zc3h11a?
Tnf reporter robust z-score: -0.42; fewer than 50 cells in well: enough cells in well

Part of the list above, reformatted:
{"gene symbol":"Ppp1r7","Tnf reporter robust z-score":0.14,"fewer than 50 cells in well":"enough cells in well"}
{"gene symbol":"Crabp1","Tnf reporter robust z-score":0.24,"fewer than 50 cells in well":"enough cells in well"}
{"gene symbol":"Rgs9","Tnf reporter robust z-score":-0.6,"fewer than 50 cells in well":"enough cells in well"}
